Assay results as given in patent US20260191962A1, “NOVEL CHLORIN E6 ANALOGUES” (RMW CHO Group Limited, priority 2022, published 2026).

Tested on: SKOV3 ovarian cancer cells
Assay: Phototoxicity of chlorin e6 analogues in SKOV3 cells after 652 nm laser activation (AlamarBlue viability)
Type: cell-based, Human
Conditions: calculated using phototoxicity IC90 vs dark toxicity IC10, SKOV3 cells
Description: Samples were stored at 4° C. protected from light.
All data are shown as mean±SD (where appropriate).
To test for phototoxicity, cells incubated with chlorin e6 analogues (0-10 μM in DMSO) had culture media replaced after 24 hours (as above) and were then exposed to a 652 nm laser (Invion) with laser density at 50 mW/cm^2 for 5 mins (total 15 J/cm^2). Following activation, cells were cultured for a further 24 hours. Media was then replaced with fresh media containing AlamarBlue, and % viable cells remaining assessed as above. Controls included cells treated with chlorin e6 analogues but not activated by laser light; cells without chlorin e6 analogue treatment but with laser light; and untreated controls. All measurements were made in quadruplicate.
To evaluate the therapeutic potential of chlorin e6 analogues, the therapeutic index (TI) was calculated. TI provides a quantitative measurement to describe relative drug safety, by comparing the drug concentration required for desirable effects versus the concentration resulting in undesirable off-target toxicity. TI was calculated using phototoxicity IC90 vs dark toxicity IC10.

Compound | Therapeutic Index
C=Cc1c(C)c2cc3nc(c(CC(=O)O)c4[nH]c(cc5nc(cc1[nH]2)C(C)=C5CC)c(C)c4C(=O)NCCCS[C@@H]1O[C@H](CO)[C@@H](O)[C@H](O)[C@H]1O)[C@@H](CCC(=O)NCCCS[C@@H]1O[C@H](CO)[C@@H](O)[C@H](O)[C@H]1O)[C@@H]3C [Compound 1, chlorin e6 bis β-D-1-thioglucose propylamide conjugate 1] | 25.94
C=Cc1c(C)c2cc3nc(c(CC(=O)NCCCS[C@@H]4O[C@H](CO)[C@@H](O)[C@H](O)[C@H]4O)c4[nH]c(cc5nc(cc1[nH]2)C(C)=C5CC)c(C)c4C(=O)NCCCS[C@@H]1O[C@H](CO)[C@@H](O)[C@H](O)[C@H]1O)[C@@H](CCC(=O)NCCCS[C@@H]1O[C@H](CO)[C@@H](O)[C@H](O)[C@H]1O)[C@@H]3C [Compound 2, chlorin e6 tris β-D-1-thioglucose propylamide conjugate 2] | 21.22
C=Cc1c(C)c2cc3nc(c(CC(=O)N(C)CCC[P+](c4ccccc4)(c4ccccc4)c4ccccc4)c4[nH]c(cc5nc(cc1[nH]2)C(C)=C5CC)c(C)c4C(=O)OC)[C@@H](CCC(=O)OC)[C@@H]3C [Compound 8, Chlorin e6 N-(methylaminopropyl)triphenylphosphonium Bromide Dimethyl Ester] | 246.89
